# From PubChem BioAssay AID487 (Columbia University Molecular Screening Center, 2006)
# Some of the results follow.
# Experiment: inhibitors of E-selectin induction by TNFa, primary screen, imaging, HUVEC, immunofluorescence, MLSMR starter and 10KST1 sets (AID 487);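 further: 100% = median nuclei count of all wells on the same plate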
# Details: HUVEC TNFalpha-induced E-selectin immunofluorescence imaging; measured here: cell number, toxicity; at 2 µM
row,Compound,nuclei count [%]
1,CCN(CC)CC(O)COC(=O)C(O)(c1ccccc1)C1CCCCC1 (stereo not drawn),189
2,CP(=O)(Nc1ccccn1)Oc1ccccc1 (stereo not drawn),78.3
3,O=P(Nc1nccs1)(c1ccccc1)c1ccccc1,130
4,CP(=O)(Nc1ccc2c(c1)OCCO2)Oc1ccccc1 (stereo not drawn),116
5,CN(C)CCOC(=O)C(O)(c1ccccc1)C1CCCCC1 (stereo not drawn),97.8
6,Cc1nn(-c2ccccc2)c2c1P(=O)(N1CCOCC1)N(C)C(c1ccccc1)=N2 (stereo not drawn),110
7,Cc1ccc(OCC(=O)OC2CN3CCC2CC3)cc1 (stereo not drawn),162
8,Cc1cccc(OCC(=O)OC2CN3CCC2CC3)c1 (stereo not drawn),142
9,Cc1ccc(C)c(NP(C)(=O)Oc2ccccc2)c1 (stereo not drawn),109
10,CCOP1(=S)c2c(C)nn(CCC#N)c2N=C(c2ccccc2F)N1C (stereo not drawn),111
11,O=C(COc1ccccc1)OC1CN2CCC1CC2 (stereo not drawn),85
12,COP1(=S)c2c(C)nn(CCC#N)c2N=C(c2ccc(F)cc2)N1C (stereo not drawn),109
13,CP(=S)(Nn1cnnc1)Oc1ccccc1 (stereo not drawn),84.3
